Experimental data from the supplement of paper PMC10331698.
± gives the standard deviation of the averaged measurements. Most values lie at the level of the controls, where differences are scatter.

Key:
Test in all cases: level (log10 ratio to DMSO vehicle control); higher = higher biomarker level / cell amount than vehicle control
[1] = compound: C=C(C)C(=O)OCC(F)(F)C(F)(F)C(F)(F)C(F)(F)C(F)(F)C(F)(F)C(F)(F)F; settings: in DMSO
Description: (§1)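 BioMAP Diversity Plus panel of 12 human primary cell co-culture systems (3C, 4H, LPS, SAg, BT, BF4T, BE3C, CASM3C, HDF3CGF, KF3CT, MyoF, Mphg). Compounds were added 1 h before stimulation and left for 24 h (MyoF 48 h; BT 72 h for soluble read-outs or 6 d for IgG). Biomarkers were read by ELISA, cytotoxicity by SRB, PBMC viability and proliferation by Alamar Blue. Each well value was divided by the mean of 8 DMSO control wells on the same plate and log10 transformed; duplicate blinded samples were tested at 4 concentrations.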

[2] = compound: C=CC(=O)OCC(F)(F)C(F)(F)C(F)(F)C(F)(F)C(F)(F)C(F)(F)C(F)(F)F [1H,1H-Perfluorooctyl acrylate]; settings: 2200 nM; in DMSO
Description: as §1

[3] = compound: C=CC(F)(F)C(F)(F)C(F)(F)C(F)(F)C(F)(F)C(F)(F)C(F)(F)C(F)(F)C=C [1,8-Divinylperfluorooctane]; settings: in DMSO
Description: as §1

[4] = compound: COC(=O)C(F)(F)C(F)(F)OC(F)(C(F)(F)F)C(F)(F)OC(F)=C(F)F [Methyl perfluoro(3-(1-ethenyloxypropan-2-yloxy)propanoate)]; settings: in DMSO
Description: as §1

[5] = compound: CO[Si](C)(CCC(F)(F)C(F)(F)C(F)(F)C(F)(F)C(F)(F)C(F)(F)F)OC [Dimethoxymethyl((perfluorohexyl)ethyl)silane]; settings: in DMSO
Description: as §1

[6] = compound: FC(F)(F)C(F)(F)C(F)(F)CC1CO1 [1H,1H-Heptafluorobutyl epoxide]; settings: 2200 nM; in DMSO
Description: as §1

Heptafluorobutyl iodide = compound: FC(F)(F)C(F)(F)C(F)(F)CI [Heptafluorobutyl iodide]; settings: 2200 nM; in DMSO
Description: as §1

[7] = compound: NC(=O)C(F)(F)C(F)(F)C(F)(F)C(F)F; settings: in DMSO
Description: as §1

Pentafluoropropionamide = compound: NC(=O)C(F)(F)C(F)(F)F [Pentafluoropropionamide]; settings: 2200 nM; in DMSO
Description: as §1

[8] = compound: NS(=O)(=O)C(F)(F)C(F)(F)C(F)(F)C(F)(F)C(F)(F)C(F)(F)C(F)(F)C(F)(F)F [Perfluorooctanesulfonamide]; settings: in DMSO
Description: as §1

[9] = compound: O=C(O)C(F)(F)C(F)(F)C(F)F [4H-Perfluorobutanoic acid]; settings: in DMSO
Description: as §1

[10] = compound: O=P(O)(O)CCC(F)(F)C(F)(F)C(F)(F)C(F)(F)C(F)(F)C(F)(F)F [2-(Perfluorohexyl)ethylphosphonic acid]; settings: 2200 nM; in DMSO
Description: as §1

[11] = compound: O=S(=O)(F)C(F)(F)C(F)(F)C(F)(F)C(F)(F)C(F)(F)C(F)(F)C(F)(F)C(F)(F)F [Perfluorooctanesulfonyl fluoride]; settings: 2200 nM; in DMSO
Description: as §1

[12] = compound: O=S(=O)(O)C(F)(F)C(F)(F)C(F)(F)C(F)(F)C(F)(F)C(F)(F)C(F)(F)C(F)(F)F [Perfluorooctanesulfonic acid]; settings: 2200 nM; in DMSO
Description: as §1

[13] = compound: O=S(=O)(O)C(F)(F)C(F)(F)C(F)(F)C(F)(F)C(F)(F)C(F)(F)C(F)(F)C(F)(F)F [Potassium perfluorooctanesulfonate]; settings: 2200 nM; in DMSO
Description: as §1

[14] = compound: O=S(=O)(OCC(F)(F)F)C(F)(F)C(F)(F)C(F)(F)C(F)(F)F [2,2,2-Trifluoroethyl perfluorobutanesulfonate]; settings: 2200 nM; in DMSO
Description: as §1

[15] = compound: OCC(F)(F)C(F)(F)C(F)(F)C(F)(F)C(F)(F)C(F)F [1H,1H,7H-Dodecafluoro-1-heptanol]; settings: 2200 nM; in DMSO
Description: as §1

[16] = compound: OCCCCC(F)(F)C(F)(F)C(F)(F)C(F)(F)F [4:4 Fluorotelomer alcohol]; settings: 2200 nM; in DMSO
Description: as §1

Test System	level (log10) ([1]; 740 nM)	level (log10) ([1]; 2200 nM)	level (log10) [2]	level (log10) ([3]; 740 nM)	level (log10) ([3]; 2200 nM)	level (log10) ([4]; 740 nM)	level (log10) ([4]; 2200 nM)	level (log10) ([5]; 740 nM)	level (log10) ([5]; 2200 nM)	level (log10) [6]	level (log10) (Heptafluorobutyl iodide)	level (log10) ([7]; 2200 nM)	level (log10) ([7]; 6700 nM)	level (log10) ([7]; 20000 nM)	level (log10) ([7]; 60000 nM)	level (log10) (Pentafluoropropionamide)	level (log10) ([8]; 2200 nM)	level (log10) ([8]; 6700 nM)	level (log10) ([8]; 20000 nM)	level (log10) ([9]; 2200 nM)	level (log10) ([9]; 6700 nM)	level (log10) ([9]; 20000 nM)	level (log10) ([9]; 60000 nM)	level (log10) [10]	level (log10) [11]	level (log10) [12]	level (log10) [13]	level (log10) [14]	level (log10) [15]	level (log10) [16]
3C:SRB	0.0315 ± 0.0064	0.017 ± 0.017	0.0025 ± 0.011	0.022 ± 0.0071	0.03 ± 0.018	-0.0025 ± 0.0092	-0.0005 ± 0.0035	0.021 ± 0.014	-0.002 ± 0.038	0.0055 ± 0.025	0.0025 ± 0.0078	-0.033 ± 0.025	-0.0075 ± 0.019	-0.013 ± 0.0014	-0.019 ± 0.023	0.0125 ± 0.011	0.0225 ± 0.023	0.0135 ± 0.022	-0.088 ± 0.0042	-0.006 ± 0.0099	0.0015 ± 0.0064	-0.007 ± 0.016	-0.0075 ± 0.013	-0.007 ± 0.021	-0.004 ± 0.0028	0.004 ± 0.016	0.0035 ± 0.019	-0.0095 ± 0.0021	0.0005 ± 0.012	-0.009 ± 0.016
HDF3CGF:Proliferation 72hr	-0.0115 ± 0.032	0.001 ± 0.068	0.0065 ± 0.03	-0.034 ± 0.083	0.019 ± 0.1	0.0105 ± 0.032	0.057 ± 0.016	-0.0335 ± 0.1	-0.0025 ± 0.066	-0.102 ± 0.013	-0.026 ± 0.023	-0.0025 ± 0.067	-0.0005 ± 0.046	-0.0245 ± 0.06	-0.0205 ± 0.037	-0.0625 ± 0.026	-0.019 ± 0.023	0.0105 ± 0.036	-0.58 ± 0.15	-0.0005 ± 0.029	-0.0415 ± 0.012	-0.03 ± 0.0042	0.066 ± 0.02	-0.0345 ± 0.0035	-0.007 ± 0.024	0.0385 ± 0.12	0.0575 ± 0.074	-0.02 ± 0.031	-0.065 ± 0.062	0.0115 ± 0.0078
BT:B cell Proliferation	-0.0095 ± 0.011	-0.006 ± 0.023	0.0095 ± 0.042	0.0125 ± 0.029	-0.0025 ± 0.059	0.034 ± 0.03	0.0145 ± 0.029	0.0185 ± 0.016	-0.0025 ± 0.012	0.0155 ± 0.035	0.025 ± 0.024	0.039 ± 0.011	0.0115 ± 0.0092	-0.001	0.0215 ± 0.0092	0.004 ± 0.013	0.0255 ± 0.018	0.0205 ± 0.0064	0.024 ± 0.028	0.025 ± 0.059	0.016 ± 0.0099	0.0055 ± 0.019	0.0065 ± 0.036	0.0285 ± 0.016	-0.0065 ± 0.033	0.0235 ± 0.025	0.025 ± 0.0085	-0.0025 ± 0.00071	-0.0135 ± 0.0035	0.015 ± 0.013
lMphg:M-CSF	0.008 ± 0.058	-0.009 ± 0.017	-0.003 ± 0.014	0.0185 ± 0.046	-0.014 ± 0.0099	0.0025 ± 0.035	-0.0015 ± 0.042	-0.0115 ± 0.016	-0.0055 ± 0.0021	0.01 ± 0.014	0.006 ± 0.018	-0.002 ± 0.021	-0.0135 ± 0.0092	-0.018 ± 0.025	-0.0175 ± 0.015	0.014 ± 0.035	0.0035 ± 0.013	-0.0445 ± 0.0092	-0.029 ± 0.021	-0.0165 ± 0.019	-0.0115 ± 0.005	-0.015 ± 0.0028	-0.0175 ± 0.0064	0.009 ± 0.038	0.014 ± 0.0057	0.002 ± 0.0085	0.012 ± 0.028	0.032 ± 0.011	0.019 ± 0.016	-0.002 ± 0.04
HDF3CGF:Collagen I	-0.0075 ± 0.042	-0.003 ± 0.016	0.0205 ± 0.012	0.0195 ± 0.091	0.0575 ± 0.047	0.03 ± 0.013	-0.019 ± 0.065	0.0205 ± 0.11	-0.037 ± 0.028	0.006 ± 0.037	0.0665 ± 0.12	0.0305 ± 0.1	-0.005 ± 0.058	0.005 ± 0.021	0.027 ± 0.02	0.0245 ± 0.079	-0.0035 ± 0.028	0.08 ± 0.037	-0.0535 ± 0.046	0.029 ± 0.088	-0.0445 ± 0.028	-0.024 ± 0.072	0.0525 ± 0.029	0.013 ± 0.062	0.0465 ± 0.044	0.015 ± 0.09	0.0455 ± 0.067	0.032 ± 0.061	0.012 ± 0.048	0.046 ± 0.042
LPS:M-CSF	0.0035 ± 0.021	-0.0045 ± 0.016	-0.0085 ± 0.016	0.0185 ± 0.05	-0.0015 ± 0.042	0.0145 ± 0.042	-0.002 ± 0.0085	-0.0105 ± 0.053	-0.0265 ± 0.0035	0.0305 ± 0.044	-0.0115 ± 0.0021	0.0095 ± 0.0064	-0.013 ± 0.028	-0.011 ± 0.0014	0.0065 ± 0.023	0.012 ± 0.037	0.0345 ± 0.0064	-0.0035 ± 0.032	0.05 ± 0.04	0.027 ± 0.0042	-0.001 ± 0.042	-0.007 ± 0.014	-0.003 ± 0.035	-0.016 ± 0.12	0 ± 0.0085	0.003 ± 0.041	-0.0165 ± 0.023	-0.0065 ± 0.03	0.0025 ± 0.016	0.0015 ± 0.0078
SAg:CXCL8/IL-8	0.022 ± 0.05	-0.0165 ± 0.046	0.0395 ± 0.036	0.0265 ± 0.044	-0.0115 ± 0.0035	-0.013 ± 0.12	-0.0405 ± 0.074	0.0085 ± 0.043	-0.0065 ± 0.00071	0.0135 ± 0.061	-0.017 ± 0.0071	0.032 ± 0.058	-0.0055 ± 0.037	0.0075 ± 0.015	0.0055 ± 0.018	0.01 ± 0.033	0.034 ± 0.0057	-0.0015 ± 0.005	-0.0505 ± 0.03	0.022 ± 0.04	-0.0325 ± 0.03	-0.0065 ± 0.022	0.025 ± 0.098	0.005 ± 0.11	0.0145 ± 0.026	-0.0015 ± 0.04	-0.001 ± 0.027	0.0235 ± 0.015	0.017 ± 0.016	0.0125 ± 0.063
BE3C:PAI-I	0.004 ± 0.0071	0.009 ± 0.027	-0.039 ± 0.037	-0.0045 ± 0.028	-0.003 ± 0.0014	-0.0515 ± 0.0064	-0.0305 ± 0.0078	0.0135 ± 0.047	-0.004 ± 0.02	0.0235 ± 0.03	-0.023 ± 0.0057	0.0025 ± 0.022	0.0065 ± 0.0064	-0.0055 ± 0.0035	0 ± 0.0028	0.005 ± 0.0085	-0.0455 ± 0.033	-0.194 ± 0.03	-0.202 ± 0.016	0.0025 ± 0.011	-0.0235 ± 0.025	-0.014 ± 0.038	-0.0175 ± 0.023	-0.013 ± 0.024	-0.0255 ± 0.00071	0.0075 ± 0.0092	0.0125 ± 0.028	0.0045 ± 0.013	-0.001 ± 0.016	-0.018 ± 0.0057
